Test system: human primary hepatocytes
Assay: cells
Details: Hepatocyte

Structure (SMILES): CC/C(=C(\c1ccccc1)c1ccc(OCCN(C)C)cc1)c1ccccc1 [Tamoxifen]
- IC50: 8.01 µM
